Results published in publication PMC3653909.
For at least one entry, the source does not settle the construct or the ends of the probe. Results from cells or extracts need not show a direct contact. The comparison behind a weaker result is the experiment's own reference, which may not be listed here. For some assays here: At least one verdict was read from the data and is not stated in words by the source. For some assays here: Protein sequences can lack the tags named with them.

Chains of the proteins cited; added tags and fusions are not shown. Lines headed by an entry give the natural chain unless they say otherwise; changes in a name come on top.
UniProt P13864: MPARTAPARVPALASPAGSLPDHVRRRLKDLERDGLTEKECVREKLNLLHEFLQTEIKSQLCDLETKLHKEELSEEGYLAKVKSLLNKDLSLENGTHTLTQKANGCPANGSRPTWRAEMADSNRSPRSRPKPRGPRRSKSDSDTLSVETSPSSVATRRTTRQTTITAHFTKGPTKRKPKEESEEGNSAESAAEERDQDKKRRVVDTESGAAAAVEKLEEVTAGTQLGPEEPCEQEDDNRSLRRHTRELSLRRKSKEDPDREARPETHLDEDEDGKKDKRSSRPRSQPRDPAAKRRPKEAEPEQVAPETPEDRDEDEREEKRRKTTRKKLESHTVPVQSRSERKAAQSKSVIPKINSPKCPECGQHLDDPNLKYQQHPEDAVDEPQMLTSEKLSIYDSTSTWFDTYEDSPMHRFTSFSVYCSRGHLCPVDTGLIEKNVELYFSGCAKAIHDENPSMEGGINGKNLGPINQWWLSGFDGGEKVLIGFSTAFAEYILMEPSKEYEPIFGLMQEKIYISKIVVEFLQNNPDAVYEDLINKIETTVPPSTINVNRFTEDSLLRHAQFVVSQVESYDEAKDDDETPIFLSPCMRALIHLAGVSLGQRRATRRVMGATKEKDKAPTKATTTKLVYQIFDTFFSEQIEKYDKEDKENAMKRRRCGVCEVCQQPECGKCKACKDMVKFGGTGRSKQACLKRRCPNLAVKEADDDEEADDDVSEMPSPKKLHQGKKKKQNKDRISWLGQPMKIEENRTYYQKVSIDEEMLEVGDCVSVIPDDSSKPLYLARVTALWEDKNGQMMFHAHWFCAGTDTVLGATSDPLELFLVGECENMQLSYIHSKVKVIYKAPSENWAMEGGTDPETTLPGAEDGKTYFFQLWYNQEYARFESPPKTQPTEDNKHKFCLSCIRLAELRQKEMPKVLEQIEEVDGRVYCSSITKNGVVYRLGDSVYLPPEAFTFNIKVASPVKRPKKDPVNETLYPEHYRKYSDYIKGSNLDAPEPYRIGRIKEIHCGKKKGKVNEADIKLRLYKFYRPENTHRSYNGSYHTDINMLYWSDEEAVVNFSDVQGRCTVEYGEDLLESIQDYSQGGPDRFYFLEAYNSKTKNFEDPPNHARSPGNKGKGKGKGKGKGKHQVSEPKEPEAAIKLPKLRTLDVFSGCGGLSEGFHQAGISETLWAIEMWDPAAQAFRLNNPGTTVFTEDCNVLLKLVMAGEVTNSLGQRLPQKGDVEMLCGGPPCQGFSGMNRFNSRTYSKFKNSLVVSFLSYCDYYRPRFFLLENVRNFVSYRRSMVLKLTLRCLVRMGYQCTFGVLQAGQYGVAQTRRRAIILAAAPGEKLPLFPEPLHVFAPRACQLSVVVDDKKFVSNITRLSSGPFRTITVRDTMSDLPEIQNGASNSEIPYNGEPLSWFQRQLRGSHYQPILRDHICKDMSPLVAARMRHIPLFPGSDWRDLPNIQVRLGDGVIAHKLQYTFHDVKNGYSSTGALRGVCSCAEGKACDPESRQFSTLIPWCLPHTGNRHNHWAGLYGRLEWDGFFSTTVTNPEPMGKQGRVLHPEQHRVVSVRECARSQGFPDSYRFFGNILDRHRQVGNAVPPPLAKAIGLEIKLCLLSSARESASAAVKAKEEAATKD

Experiments:
Test in all cases: GFP-trap pull-down, fluorescent DNA in direct competition
[1] = molecular target: T1, CXXCTet1-GFP (mouse) (UniProt Q3URK3); details: protein in a lysate after overexpression, residues 561-614, protein details: C-terminal GFP
T1 sequence (looked up): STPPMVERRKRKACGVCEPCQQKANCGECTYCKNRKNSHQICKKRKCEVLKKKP

[2] = molecular target: T2, Cxxc5-GFP (UniProt Q91WA4); details: protein in a lysate after overexpression, protein details: C-terminal GFP
T2 sequence (looked up, limits assumed): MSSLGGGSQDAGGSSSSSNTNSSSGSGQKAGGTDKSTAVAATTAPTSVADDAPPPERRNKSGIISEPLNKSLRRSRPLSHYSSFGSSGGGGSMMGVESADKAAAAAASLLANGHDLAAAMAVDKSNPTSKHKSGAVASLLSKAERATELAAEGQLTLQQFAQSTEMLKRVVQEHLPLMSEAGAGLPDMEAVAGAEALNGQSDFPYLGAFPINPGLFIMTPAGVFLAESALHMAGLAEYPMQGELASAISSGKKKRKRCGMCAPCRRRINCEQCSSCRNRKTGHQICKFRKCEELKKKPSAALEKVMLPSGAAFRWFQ

[3] = molecular target: GFP-Tet1 (mouse) (UniProt Q3URK3); details: protein in a lysate after overexpression, protein details: N-terminal GFP
[4] = molecular target: T3, CXXCTet3-GFP (mouse) (UniProt Q8BG87); details: protein in a lysate after overexpression, protein details: C-terminal GFP
T3 sequence (looked up, limits assumed): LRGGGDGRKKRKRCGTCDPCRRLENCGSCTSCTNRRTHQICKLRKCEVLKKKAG

[5] = test system: GFP-Tet3 (mouse); details: protein in a lysate after overexpression, protein details: N-terminal GFP
[6] = molecular target: GFP-Tet3CXXCL (mouse) (UniProt Q8BG87); details: protein in a lysate after overexpression, residues 1-1803, protein details: N-terminal GFP
[7] = molecular target: T4, Cxxc4-GFP (UniProt Q6NXI8); details: protein in a lysate after overexpression, protein details: C-terminal GFP
T4 sequence (looked up, limits assumed): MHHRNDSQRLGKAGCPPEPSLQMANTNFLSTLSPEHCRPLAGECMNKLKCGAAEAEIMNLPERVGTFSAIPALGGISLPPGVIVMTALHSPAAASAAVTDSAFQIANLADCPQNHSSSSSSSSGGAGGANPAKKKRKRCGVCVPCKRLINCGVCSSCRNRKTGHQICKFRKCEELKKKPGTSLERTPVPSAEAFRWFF

[8] = molecular target: T5, GFP-Tet1 512-671 (mouse) (UniProt Q3URK3); details: CG = mCG > hmCG, protein in a lysate after overexpression, residues 512-671, protein details: N-terminal GFP
T5 sequence (looked up): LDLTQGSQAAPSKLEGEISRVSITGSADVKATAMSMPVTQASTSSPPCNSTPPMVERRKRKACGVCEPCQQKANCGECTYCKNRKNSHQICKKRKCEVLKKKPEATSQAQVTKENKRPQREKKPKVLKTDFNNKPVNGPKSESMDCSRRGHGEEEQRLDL

[9] = molecular target: GFP-CXXCDnmt1 (UniProt P13864); details: lower activity than Cxxc4, Cxxc5 and Tet constructs; protein in a lysate after overexpression; protein details: N-terminal GFP
[10] = molecular target: T6, GFP-CXXCTet1 (mouse) (UniProt Q3URK3); details: much lower than CXXCTet1-GFP, protein in a lysate after overexpression, residues 561-614, protein details: N-terminal GFP
T6 sequence (looked up): T1 sequence (looked up)

[11] = versus CG, label: 5' ATTO647N on strand 2
[12] = CG > mCG > hmCG, 5-hydroxymethylcytosine at position 21 of both strands, label: 5' ATTO dye on strand 2 (hmC550: ATTO550)
[13] = CG > mCG > hmCG, 5-methylcytosine at position 21 of both strands, label: 5' ATTO dye on strand 2 (mC700: ATTO700)
[14] = 5-methylcytosine at position 21 of both strands, label: 5' ATTO dye on strand 2 (mC700: ATTO700)
[15] = relative increase for mCG versus CXXCTet3-GFP, 5-methylcytosine at position 21 of both strands, label: 5' ATTO dye on strand 2 (mC700: ATTO700)

Measured: binding result

CTCAACAACTAACTACCATCTGGACCAGAAGAGTCATCATGG / CCATGATGACTCTTCTGGTCTGGATGGTAGTTAGTTGTTGAG [noCG]
binds more weakly: [1]; [11] | [2]; [11] | [3]; [11] | [4]; [11] | [5]; [11] | [6]; [11] | [7]; [11]

CTCAACAACTAACTACCATCCGGACCAGAAGAGTCATCATGG (double strand) [hmCG]
binds more weakly: [1]; CG = mCG > hmCG, 5-hydroxymethylcytosine at position 21 of both strands, label: 5' ATTO dye on strand 2 (hmC550: ATTO550) | [2]; [12] | [3]; same preference as CXXCTet1-GFP, 4-fold molar excess of DNA, 5-hydroxymethylcytosine at position 21 of both strands, label: 5' ATTO dye on strand 2 (hmC550: ATTO550) | [8]; 5-hydroxymethylcytosine at position 21 of both strands, label: 5' ATTO dye on strand 2 (hmC550: ATTO550) | [4]; [12] | [7]; [12]

CTCAACAACTAACTACCATCCGGACCAGAAGAGTCATCATGG (double strand)
binds: [1]; CG = mCG > hmCG | [2]; CG > mCG > hmCG | [3]; 8-fold higher activity than CXXCTet1-GFP, 4-fold molar excess of DNA | [8] | [4]; CG > mCG > hmCG | [5]; 4-fold molar excess of DNA | [6]; 4-fold molar excess of DNA | [7]; CG > mCG > hmCG
binds more weakly: [9] | [10]

CTCAACAACTAACTACCATCCGGACCAGAAGAGTCATCATGG (double strand) [mCG]
binds more weakly: [2]; [13] | [4]; [13] | [10]; [14] | [7]; [13]
binds: [1]; CG = mCG > hmCG, 5-methylcytosine at position 21 of both strands, label: 5' ATTO dye on strand 2 (mC700: ATTO700) | [3]; same preference as CXXCTet1-GFP, 4-fold molar excess of DNA, 5-methylcytosine at position 21 of both strands, label: 5' ATTO dye on strand 2 (mC700: ATTO700) | [8]; [14] | [5]; [15] | [6]; [15]
